Patent US7488583B2, “Fragment complementation assays for G-protein-coupled receptors and their signaling pathways” (Odyssey Thera, Inc., priority 2003, dated 2009)
Results are given in words; binding and its absence hold for the method and conditions named. Some entries that bind do so weakly or less than the wild type. For some assays here: Where a sequence is shown, tags or fusion partners need not be part of it. One block for each molecule: values may come before it.

Amino acid sequences for entries named in this document (tags omitted). Residues count along the entry.
UniProt Q9ULV1, residues 37-537: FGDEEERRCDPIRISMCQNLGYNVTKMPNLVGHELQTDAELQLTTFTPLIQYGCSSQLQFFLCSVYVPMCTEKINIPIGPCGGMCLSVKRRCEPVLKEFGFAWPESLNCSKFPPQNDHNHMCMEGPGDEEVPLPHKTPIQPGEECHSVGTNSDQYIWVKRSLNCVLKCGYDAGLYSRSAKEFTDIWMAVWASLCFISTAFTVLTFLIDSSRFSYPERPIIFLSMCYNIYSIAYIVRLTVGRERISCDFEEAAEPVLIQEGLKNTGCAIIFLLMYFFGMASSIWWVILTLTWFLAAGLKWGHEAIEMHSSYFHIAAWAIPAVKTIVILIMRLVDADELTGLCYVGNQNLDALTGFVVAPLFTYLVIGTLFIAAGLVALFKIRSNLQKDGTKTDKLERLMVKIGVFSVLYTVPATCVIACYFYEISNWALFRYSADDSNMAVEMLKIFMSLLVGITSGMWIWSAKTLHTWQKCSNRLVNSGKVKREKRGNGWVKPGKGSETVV
UniProt P62873: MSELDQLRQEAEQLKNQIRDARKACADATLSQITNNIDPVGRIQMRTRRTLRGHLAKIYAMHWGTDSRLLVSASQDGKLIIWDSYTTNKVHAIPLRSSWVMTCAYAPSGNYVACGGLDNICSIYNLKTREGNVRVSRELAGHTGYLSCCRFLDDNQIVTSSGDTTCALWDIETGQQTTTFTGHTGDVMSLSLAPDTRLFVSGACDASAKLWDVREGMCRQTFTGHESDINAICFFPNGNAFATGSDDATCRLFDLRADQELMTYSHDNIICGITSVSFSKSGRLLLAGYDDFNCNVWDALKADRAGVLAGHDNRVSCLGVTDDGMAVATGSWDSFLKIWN
UniProt P25098: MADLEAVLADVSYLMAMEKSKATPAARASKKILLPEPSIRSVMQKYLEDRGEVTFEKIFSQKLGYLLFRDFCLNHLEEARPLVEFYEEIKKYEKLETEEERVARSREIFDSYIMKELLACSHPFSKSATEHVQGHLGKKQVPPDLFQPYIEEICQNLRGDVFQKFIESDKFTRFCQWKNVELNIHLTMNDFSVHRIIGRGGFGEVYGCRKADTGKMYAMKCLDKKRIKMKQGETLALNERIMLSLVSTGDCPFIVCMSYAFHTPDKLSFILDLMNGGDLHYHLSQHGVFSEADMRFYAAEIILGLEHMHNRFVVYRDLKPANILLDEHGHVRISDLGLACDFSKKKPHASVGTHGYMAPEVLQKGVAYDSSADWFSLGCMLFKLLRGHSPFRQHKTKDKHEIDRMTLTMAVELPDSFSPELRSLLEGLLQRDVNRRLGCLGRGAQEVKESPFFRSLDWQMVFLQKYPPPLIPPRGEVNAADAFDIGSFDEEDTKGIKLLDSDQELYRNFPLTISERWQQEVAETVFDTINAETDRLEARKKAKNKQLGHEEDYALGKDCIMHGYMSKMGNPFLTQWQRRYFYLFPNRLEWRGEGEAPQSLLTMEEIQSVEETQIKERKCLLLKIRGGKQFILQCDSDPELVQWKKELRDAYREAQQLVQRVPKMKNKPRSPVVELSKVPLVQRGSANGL

How the values were obtained:
[1] = biological target: T1, vasoactive intestinal peptide receptor 2 (YFP PCA fragment fusion) (UniProt P41587); experiment: YFP PCA, transient transfection in HEK cells, fluorescence microscopy
T1 sequence (looked up): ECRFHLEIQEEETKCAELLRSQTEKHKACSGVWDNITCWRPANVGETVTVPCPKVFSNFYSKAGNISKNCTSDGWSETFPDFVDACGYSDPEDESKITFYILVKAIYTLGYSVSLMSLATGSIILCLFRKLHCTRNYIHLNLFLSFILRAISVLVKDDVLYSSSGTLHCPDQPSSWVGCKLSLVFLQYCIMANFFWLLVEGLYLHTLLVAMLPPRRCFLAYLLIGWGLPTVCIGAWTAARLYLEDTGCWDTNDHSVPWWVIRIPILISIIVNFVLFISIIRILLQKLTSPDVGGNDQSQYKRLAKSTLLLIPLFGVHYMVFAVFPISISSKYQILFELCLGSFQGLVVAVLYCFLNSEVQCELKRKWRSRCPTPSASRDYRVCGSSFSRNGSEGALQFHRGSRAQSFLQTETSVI

[2] = biological target: T1, vasoactive intestinal peptide receptor 2 (YFP PCA fragment fusion); experiment: YFP PCA, transient transfection in HEK cells, fluorescence micrographs (FIG. 13 legend)
[3] = biological target: Frizzled homolog 4 (YFP PCA fragment fusion) (UniProt Q9ULV1); experiment: YFP PCA, transient transfection in HEK cells, fluorescence microscopy
[4] = biological target: Frizzled homolog 4 (YFP PCA fragment fusion) (UniProt Q9ULV1); experiment: YFP PCA, transient transfection in HEK cells, fluorescence micrographs (FIG. 13 legend)
[5] = biological target: Chemokine Receptor 5 (YFP PCA fragment fusion) (UniProt P51681); experiment: YFP PCA, transient transfection in HEK cells, fluorescence microscopy
[6] = biological target: Chemokine Receptor 5 (YFP PCA fragment fusion) (UniProt P51681); experiment: YFP PCA, transient transfection in HEK cells, fluorescence micrographs (FIG. 13 legend)

binding [1]: binds | binding [2]: binds
Molecule: G-beta-1 (YFP PCA fragment fusion, Example 7) (from UniProt P62873 1-340)

binding [3]: binds | binding [4]: binds
Molecule: GRK2 (YFP PCA fragment fusion) (from UniProt P25098 1-689) (enzyme)

binding [5]: binds | binding [6]: binds
Molecule: PKCalpha (YFP PCA fragment fusion) (from UniProt P17252 1-672) (enzyme)

binding [3]: binds | binding [4]: binds
B1: RGS2 (YFP PCA fragment fusion) (protein, UniProt P41220 1-211, looked up, not shown: large carriers)
chain: MQSAMFLAVQHDCRPMDKSAGSGHKSEEKREKMKRTLLKDWKTRLSYFLQNSSTPGKPKTGKKSKQQAFIKPSPEEAQLWSEAFDELLASKYGLAAFRAFLKSEFCEENIEFWLACEDFKKTKSPQKLSSKARKIYTDFIEKEAPKEINIDFQTKTLIAQNIQEATSGCFTTAQKRVYSLMENNSYPRFLESEFYQDLCKKPQITTEPHAT
